Results reported in the supplement of paper PMC5949888.
Most values lie at the floor of the assay. Slopes are relative: functional sequences can read slightly below zero.

Each substance was assayed on Saccharomyces cerevisiae PS128 hsf1 delta, HSF1(1-493) fusion (assay: growth estimate (transactivation domain function in HSF1 fusion, heat-shock survival) (a.u. (slope of normalised read count over time)); higher = stronger growth at 37°C, i.e. more transactivation activity). Settings: library: random library.
With GQRGLTMISIGLTERNPSLC the growth estimate was under -0.25.
In the case of TPMGLQTASRSLYLSRLH, the growth estimate is reported as -0.242.
PTSSFAPWDLLM gave a growth estimate of 0.715.
For LWLGDSL, the growth estimate was under -0.25.
For ATGNSKTV, the growth estimate was under -0.25.
In the case of TDVRRYLRRRGQLGGGVRHH, the growth estimate is reported as under -0.25.
WVQRSSAQ gave a growth estimate of under -0.25.
Work on LETEPPTCGRSFNRLIIFLA yielded a growth estimate of under -0.25.
WKRSTAPPAKARKKPGYRPH gave a growth estimate of under -0.25.
RWVI gave a growth estimate of under -0.25.
Substance HVSDIDIPPGTSRGHAPETC has a growth estimate of under -0.25.
Substance GIQVFSL has a growth estimate of -0.237.
LRGPSSR gave a growth estimate of under -0.25.
With EQTE the growth estimate was under -0.25.
In the case of GCRP, the growth estimate is reported as under -0.25.
VSRSYGPGRCP gave a growth estimate of under -0.25.
For MHGVYYTVQTYAISIVCYNL, the growth estimate was under -0.25.
RGKYVSCAASD showed a growth estimate of under -0.25.
In the case of SLRLLRGSGSLSRRRTSRSH, the growth estimate is reported as under -0.25.
With RNVMLGGVDTPVRNYITHTW the growth estimate was under -0.25.
For VGWCWLSIHVTLPLEGESRA, the growth estimate was under -0.25.
For RWSFRCPKHEQISTASGSG, the growth estimate was under -0.25.
With ADAQYRKEKGAGL the growth estimate was under -0.25.
In the case of HRHIALDRVIRAIPPTPLLL, the growth estimate is reported as under -0.25.
For IVAGFCS, the growth estimate was under -0.25.
For SVRPTSKRCLSCRPCFVD, the growth estimate was under -0.25.
PCYKRIQLF showed a growth estimate of under -0.25.
SGISQSVWGHRQFCGQTSSL showed a growth estimate of under -0.25.
In the case of TVVRRVLNQSTGRWCCRICV, the growth estimate is reported as under -0.25.
In the case of PIGRSGLRALPPRPRRSRQH, the growth estimate is reported as under -0.25.
With TENR the growth estimate was under -0.25.
For QGQRPVLRFALLARGPQ, the growth estimate was under -0.25.
Substance SVHCHCDLLGVVHHGFNGRL has a growth estimate of under -0.25.
LVYRIR gave a growth estimate of -0.193.
KGVVVPRVYRSSLCAERVGN showed a growth estimate of under -0.25.
Work on GCWNLNSMDFGLVSYQ yielded a growth estimate of under -0.25.
YGPLQRRSLGLTLLITGL was tested, and the growth estimate was under -0.25.
In the case of LRADQLQANTRP, the growth estimate is reported as under -0.25.
GFFRLRACVRLWHRTDPLDW gave a growth estimate of -0.238.
VQSK showed a growth estimate of under -0.25.
FDRLPFGFLLGARGYVGIGH was tested, and the growth estimate was under -0.25.
Substance KMACRFQGMLALQPSP has a growth estimate of under -0.25.
In the case of GIFKRIAFFVGSSSN, the growth estimate is reported as under -0.25.
VMGSIVYCFTNARDSVYGWT showed a growth estimate of under -0.25.
With YPQW the growth estimate was -0.237.
In the case of VWGVGERRTCLDVRRKVLTH, the growth estimate is reported as under -0.25.
Work on VPIRHMHSLFG yielded a growth estimate of under -0.25.
With PRMLLTPVRHVLCGGLHGSG the growth estimate was under -0.25.
Substance MVGVPI has a growth estimate of under -0.25.
RHFICRHTQPKCTNWY gave a growth estimate of under -0.25.
QEYKKMRDRAS gave a growth estimate of under -0.25.
For GVGNKQA, the growth estimate was under -0.25.
GILASWPGQAITGS was tested, and the growth estimate was under -0.25.
For HRCISLRGFGGLSGDWTFGL, the growth estimate was under -0.25.
For GWRTDWVAAQRDCCPVAPRR, the growth estimate was under -0.25.
YTFPRRSPAVNQKGT was tested, and the growth estimate was under -0.25.
With NWWSTYSRRQRGPSRVHETP the growth estimate was under -0.25.
With RCGVQYQIIGT the growth estimate was under -0.25.
With RGVIYGVKRSGVFKFLNP the growth estimate was under -0.25.
In the case of VRDTRPHASRVRAIVAVVDP, the growth estimate is reported as under -0.25.
For GLWS, the growth estimate was under -0.25.
With EGRRIH the growth estimate was under -0.25.
For GNPVLGCRLT, the growth estimate was under -0.25.
GLIQPVCYAINTRASTGLKS was tested, and the growth estimate was under -0.25.
With WWKEKWEGKAFAVTGLNTGG the growth estimate was under -0.25.
With KCVVS the growth estimate was under -0.25.
Substance NIKTYSRLSRDYTRKGIHES has a growth estimate of under -0.25.
Work on VGNGDGASSGTGTFH yielded a growth estimate of under -0.25.
In the case of GACMRTESAKGLSSKNITVT, the growth estimate is reported as under -0.25.
Substance AGYALNGNRIGSPFSEAGVD has a growth estimate of under -0.25.
Substance GAGGWGLNKVIAGPGTRAHH has a growth estimate of under -0.25.
RSVVGGKNGSFEGTRVAREG showed a growth estimate of under -0.25.
Substance ASVCSV has a growth estimate of under -0.25.
Substance SEGPRRNLEIQMSSQAR has a growth estimate of under -0.25.
IMRRPVRSIQRPANHLLNPQ showed a growth estimate of under -0.25.
GLVLVVGMQKSGRKILVASA was tested, and the growth estimate was under -0.25.
With QLRRCICLPSRRRR the growth estimate was under -0.25.
Substance LGHVL has a growth estimate of under -0.25.
In the case of LSAGSSDWADQPW, the growth estimate is reported as under -0.25.
IYESWYVLG gave a growth estimate of under -0.25.
In the case of LSLSGYVETVCADLKHQVDR, the growth estimate is reported as under -0.25.
IGPHRRYRLFVLASYRPCAC gave a growth estimate of under -0.25.
Work on GSNNSGATARVDKG yielded a growth estimate of under -0.25.
For FGCW, the growth estimate was under -0.25.
MHFSWRQLVR was tested, and the growth estimate was -0.206.
In the case of FCAGADPGCFIGRDQHT, the growth estimate is reported as under -0.25.
Work on LELSCLGGRVAAR yielded a growth estimate of under -0.25.
With IWS the growth estimate was under -0.25.
GLSLAPTRTGRGSLAVTMMN was tested, and the growth estimate was under -0.25.
For SQTLGTGLFSLSNGRRA, the growth estimate was under -0.25.
For VQCWIARVLNTRFTVLIARV, the growth estimate was under -0.25.
Work on AITHCCQRKPIMGAFIRRRC yielded a growth estimate of under -0.25.
In the case of GNIWGTFFD, the growth estimate is reported as -0.139.
In the case of ARKGLLRIISDR, the growth estimate is reported as under -0.25.
Substance YGFHADK has a growth estimate of under -0.25.
With RGDGPICKGRWPNDSRRGNK the growth estimate was under -0.25.
Substance KLASEPEFTL has a growth estimate of under -0.25.
CEDGSPNGVHEERKGGNTGQ was tested, and the growth estimate was under -0.25.
With WERCTS the growth estimate was under -0.25.
AVSRSTDMRRGALLEFPGGF gave a growth estimate of under -0.25.
